Reference: the supplement of paper PMC12889115
The list shows a part of the results. Values are raw readings; no control value is given beside them.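 First-pass screen: polymyxin B was added at a level that permeabilizes the Salmonella outer membrane while sparing the inner membrane. DMSO wells, with and without polymyxin B, defined maximum growth. Because plates differed from one another, each plate's data were ranked separately and the compounds with the lowest OD600 were carried forward as hits.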

Test system: Salmonella enterica serovar Typhimurium SL1344
Experiment: bacterial growth OD600 after 18 h with compound and polymyxin B; higher = more bacterial growth (less inhibition)
Details: 50 µM, Mueller-Hinton broth

Row | Compound | bacterial growth OD600 (polymyxin B 0.75 µg/mL) | bacterial growth OD600 (polymyxin B 1 µg/mL)
1 | COc1cc(=O)n2c(c1C(=O)NCCCn1ccnc1)CCN(Cc1ccc(C(C)C)cc1)CC2 | 0.828 | 
2 | O=C(N[C@H]1CCCCNC1=O)c1ccc(N2CCC(NCCCn3ncc4ccccc43)CC2)cc1 | 0.992 | 
3 | CCOC(=O)C1(Cc2ccc(OC)cc2)CCN(S(=O)(=O)c2ccc(C)cc2)CC1 |  | 0.393
4 | CC(C)N1CCC(N2CC[C@@H](N3CCN(c4ccccn4)CC3)[C@H](O)C2)CC1 |  | 0.965
5 | COc1ccc(OC)c(CC(=O)N2CCOc3ccc(CN4CCN(CCO)CC4)cc3C2)c1 | 0.788 | 
6 | CCN1CCN(C2(C(=O)N3CCC(C)CC3)Cc3ccccc3C2)CC1 | 0.745 | 
7 | Cc1c(CN(C)Cc2c(C(=O)N3C[C@@H](C)O[C@@H](C)C3)nc3sccn23)[nH]c2ccccc12 |  | 0.956
8 | Cc1cc2nc(N3CCC(C(=O)NCCC(C)C)CC3)nc(C)c2cc1C | 0.728 | 
9 | O=C(CCC1(Cc2ccccc2)CCC(=O)N1)NCCc1ccccc1C(F)(F)F (centres undefined) | 0.852 | 
10 | COc1ccc(CCN2CC(NC(=O)Cc3ccccc3)CC2=O)cc1 (centres undefined) |  | 0.891
11 | Cc1nccn1-c1ccc(NC(=O)C2CCCN2C2Cc3ccccc3C2)cc1 (centres undefined) | 0.82 | 
12 | C/C=C(\C)CN1CCCC(CCC(=O)NCc2ccc(OC)cc2OC)C1 (centres undefined) | 0.807 | 
13 | CC(=O)c1cc(C(=O)NC2CCCN(CCc3ccccc3)C2)cs1 (centres undefined) | 0.783 | 
14 | CCCCC1CN(CCC(=O)NC(C)c2nccs2)Cc2ccccc2O1 (centres undefined) | 0.794 | 
15 | CC(=O)N1CCC(Oc2ccc(Cl)cc2C(=O)N2CCCO2)CC1 |  | 1.01
16 | Cn1cc(CN2CCN(c3ccc(Cl)cn3)CC2)c(-c2ccc3c(c2)OCCO3)n1 |  | 0.451
17 | Cc1cc2nc(N3CCC(C(=O)NC45CC6CC(CC(C6)C4)C5)CC3)nc(C)c2cc1C | 0.734 | 
18 | CC(C)c1ccc(CN2CCCC3(CCN(S(=O)(=O)N(C)C)C3)C2=O)cc1 (centres undefined) |  | 0.667
19 | C[C@@H]1CN(Cc2nc(-c3ccc(C(F)(F)F)cc3)no2)C[C@H](C)O1 |  | 0.948
20 | O=C(C#Cc1ccccc1)N1CCC(C2(c3cccnc3)NC(=O)N(CCc3cccs3)C2=O)CC1 (centres undefined) | 0.014 | 
21 | CSc1ccc(CC2(CCC(=O)NC(C)c3nc(C)cs3)CCC(=O)N2)cc1 (centres undefined) | 0.884 | 
22 | COc1ccc(CNC(=O)CCC2CCCN(Cc3ccsc3)C2)c(OC)c1 (centres undefined) |  | 1.02
23 | CC(=O)NCCNc1ccc(-c2nc(Cc3ccccc3)no2)cn1 |  | 0.963
24 | COc1ccc(NC(=O)N(C)CC2CCCN(CCc3ccccc3OC)C2)cc1 (centres undefined) |  | 1.15
25 | C=CCO[C@H]1[C@H](NC(=O)COC)c2ccccc2C12CCN(C(=O)CCc1cccs1)CC2 | 0.896 | 
26 | Cc1c[nH]c(CN(CC2CCN(Cc3ccccc3F)CC2)CC2CCCO2)n1 (centres undefined) |  | 0.95
27 | Cc1nc(C)n(CC(=O)N2CCC3(CC2)CC3C(=O)NCCC2=CCCCC2)n1 (centres undefined) | 1.02 | 
28 | O=C(CCc1ccco1)NC1CCCN(CCc2ccccc2)C1 (centres undefined) |  | 0.914
29 | COc1cc(=O)n2c(c1C(=O)NCc1ccc3c(c1)OCO3)CCN(C(=O)C1CC13CCCC3)CC2 (centres undefined) | 0.814 | 

Some values from the entries so far:
Entry of C/C=C(\C)CN1CCCC(CCC(=O)NCc2ccc(OC)cc2OC)C1 (centres undefined) under bacterial growth OD600 (polymyxin B 0.75 µg/mL): 0.807
Entry of COc1ccc(CCN2CC(NC(=O)Cc3ccccc3)CC2=O)cc1 (centres undefined) under bacterial growth OD600 (polymyxin B 1 µg/mL): 0.891
